# Test results published in PubChem BioAssay AID1347421 (Sanford-Burnham Center for Chemical Genomics, 2020).
# The chains behind the UniProt entries cited, without tags or fusion partners. Where a name states a change or a piece, a line headed by the entry shows the natural chain unless it says otherwise.
# UniProt O00391: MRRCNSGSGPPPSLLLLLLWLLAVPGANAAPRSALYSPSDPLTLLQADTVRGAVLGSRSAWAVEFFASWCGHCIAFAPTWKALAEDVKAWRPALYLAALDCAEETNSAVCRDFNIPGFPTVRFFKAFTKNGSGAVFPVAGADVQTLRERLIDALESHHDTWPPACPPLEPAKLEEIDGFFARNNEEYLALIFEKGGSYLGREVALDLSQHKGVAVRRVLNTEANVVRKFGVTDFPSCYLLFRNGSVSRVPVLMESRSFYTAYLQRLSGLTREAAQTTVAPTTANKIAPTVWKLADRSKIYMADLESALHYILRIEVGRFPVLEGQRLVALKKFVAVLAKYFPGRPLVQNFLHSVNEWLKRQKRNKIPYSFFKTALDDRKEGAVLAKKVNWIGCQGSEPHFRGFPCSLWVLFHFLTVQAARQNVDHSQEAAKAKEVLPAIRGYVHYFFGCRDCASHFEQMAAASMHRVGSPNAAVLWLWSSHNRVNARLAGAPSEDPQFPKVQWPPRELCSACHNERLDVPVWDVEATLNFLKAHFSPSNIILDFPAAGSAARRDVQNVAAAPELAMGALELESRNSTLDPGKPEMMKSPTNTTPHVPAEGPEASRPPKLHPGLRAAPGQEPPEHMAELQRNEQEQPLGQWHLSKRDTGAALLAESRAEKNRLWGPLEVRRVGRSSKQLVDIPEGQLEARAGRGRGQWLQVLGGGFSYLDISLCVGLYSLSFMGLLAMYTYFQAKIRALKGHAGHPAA
# Over roughly 1,500 compounds, “activity” has its median near 2; the lowest 2% begin near -18. The list shows a part of the results. Active and inactive are the calls of the source.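 Rule for the calls: active = inhibition of at least 40% at 10 µM; inconclusive = no clear call, values can overlap the other calls; inactive = the rest.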
# Target: Sulfhydryl oxidase 1 (Homo sapiens) (UniProt O00391)
# Test: human QSOX1 sulfhydryl oxidase inhibition – biochemical, ROS-Glo luminescence, single concentration, confirmation (AID 1347421);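 note: 0% = DMSO wells with enzyme and 100% = wells lacking QSOX1 enzyme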
# Details: recombinant hQSOX1, RNase A substrate, ROS-Glo H2O2 luminescence; at 10 µM
row,SMILES,activity
1,COc1ccc(S(=O)(=O)NCC2CCCN(C(=O)CN3CCCC3)C2)cc1 (stereo not given),0.5%
2,COc1cc(C)c(Cl)cc1S(=O)(=O)n1cccn1,inactive: -12.9%
3,C=CCNC(=O)N1CCOC(Cc2cccc(C(F)(F)F)c2)C1 (stereo not given),1.5%
4,O=C(Nc1cccc(-n2cccn2)c1)C1CCCN1Cc1cnc[nH]1 (stereo not given),inactive: -25.6%
5,C/C(=C\c1ccco1)CN1CCC2(CCCN(CC3CC3)C2)C1 (stereo not given),inactive: -1.1%
6,NC(=O)CCNCc1ccccc1OCC(O)CN1CCCCC1 (stereo not given),4.1%
7,CCSc1ncc(CN2CC[C@@H](N3CCCCCC3)[C@H](O)C2)cn1,0.9%
8,O=C(c1cn(C2CCCCCC2)nn1)N1CCN(Cc2ccc3c(c2)OCO3)CC1,inactive: -1%
9,O=C1CC(c2ccc(S(=O)(=O)N3CCCC3)cc2)CN1 (stereo not given),inactive: -1.5%
10,CC(NC(=O)Cn1nc(-c2ccccc2)ccc1=O)c1ccccc1 (stereo not given),8.8%
11,O=C(c1ccc(Oc2ccccc2)cc1)C1CCCN(C(=O)CCN2CCCC2=O)C1 (stereo not given),3.7%
12,O=C(CCC1CCCN(C(=O)Cn2cnnn2)C1)N1CCN(Cc2ccccc2)CC1 (stereo not given),9.9%
13,CSc1ccccc1NC(=O)c1ccc(NS(C)(=O)=O)cc1,3.7%
14,COCC1CCCN(C(=O)c2cn(C(c3ccccc3)c3ccccc3)nn2)C1 (stereo not given),4.7%
15,O=C(CCC1CCN(CC2CCOC2)CC1)N1CCC(Cc2ccccc2)CC1 (stereo not given),1.7%
16,Cc1c(CN2CCCC(N3CCN(c4ccccc4)CC3)C2)c(=O)n(-c2ccccc2)n1C (stereo not given),inactive: -4.8%
17,COc1ccc(-n2cc(CN[C@H]3CCCCNC3=O)c(-c3cccc(F)c3)n2)cc1,inactive: -3.9%
18,Cc1cccc(-n2ccnc2CN2CCC(CCC(=O)N3CCOCC3)CC2)c1,8.9%
19,Cc1ccccc1C(=O)Nc1ccccc1C(=O)N(C)C,inactive: -20%
20,CC1(C)CC(=O)C=C(C(=O)N2CCCC(Nc3ccc4c(c3)OCCO4)C2)O1 (stereo not given),14.7%
21,CCOc1ccccc1CN1CCNC(=O)C1CC(=O)NCC1CCN(CCOC)CC1 (stereo not given),4%
22,COc1ccc(-c2nc(SCC(=O)N3CCCC3)n[nH]2)cc1,2.8%
23,CN(Cc1ccon1)CC1(O)CCCN(Cc2ccccc2F)C1=O (stereo not given),6.1%
24,CSCCC(=O)N1CCC(CCC(=O)Nc2cccc(C)c2)CC1,2.6%
25,CCCn1cc(CN2CCOC(CCc3ccccc3)C2)c(C)n1 (stereo not given),inactive: -1.5%
26,O=C(CCn1nnnc1CN1CCOCC1)NCCCn1ncc2ccccc21,2.3%
27,CN(Cc1cnn(C)c1)C(=O)c1cc(COc2ccc(-n3cncn3)cc2)on1,0.2%

# Quoted from the listing:
# In activity, Cc1cccc(-n2ccnc2CN2CCC(CCC(=O)N3CCOCC3)CC2)c1 reads 8.9%
# In activity, COc1cc(C)c(Cl)cc1S(=O)(=O)n1cccn1 reads inactive: -12.9%
# In activity, C=CCNC(=O)N1CCOC(Cc2cccc(C(F)(F)F)c2)C1 (stereo not given) reads 1.5%
# In activity, C/C(=C\c1ccco1)CN1CCC2(CCCN(CC3CC3)C2)C1 (stereo not given) reads inactive: -1.1%

# An excerpt from above in order of count of non-hydrogen atoms, ascending.
row,SMILES,activity
9,O=C1CC(c2ccc(S(=O)(=O)N3CCCC3)cc2)CN1 (stereo not given),inactive: -1.5%
17,COc1ccc(-n2cc(CN[C@H]3CCCCNC3=O)c(-c3cccc(F)c3)n2)cc1,inactive: -3.9%
11,O=C(c1ccc(Oc2ccccc2)cc1)C1CCCN(C(=O)CCN2CCCC2=O)C1 (stereo not given),3.7%

# More structures follow.

row,SMILES,activity
1,COc1cc(CNC2(c3ccccc3)CC2)ccc1OCC(O)CN1CCOCC1 (stereo not given),5.8%
2,CCc1ccc(CN(C)Cc2cccc(OCC(O)CN3CCC(O)CC3)c2)nc1 (stereo not given),6.3%
3,CC(C)c1ccc(NC2CCCN(C(=O)CCc3cnccn3)C2)cc1 (stereo not given),2.6%
4,NC(=O)C1CCCN(C(=O)Nc2ccc(F)cc2)C1 (stereo not given),inactive: -0.4%
5,CSc1nc(C(=O)N(C)C2CCCN(Cc3ccccc3F)C2)cs1 (stereo not given),5.1%
6,COc1cc(CNCc2ccc(C)o2)ccc1OCC(O)CN(C)C(C)C (stereo not given),9.7%
7,COc1cccc(NC(=O)CCC2CCN(C(=O)CCc3cnccn3)CC2)c1,inactive: -0.4%
8,CCCc1c(-c2n[nH]c3c2CN(C(=O)C(C)C)CC3)cnn1-c1ccccc1,inactive: -0.8%
9,CC(=O)c1cccc(OCc2cc(C(=O)N(CC3CC3)CC3CCCO3)no2)c1 (stereo not given),0.5%
10,Cn1nc(C(=O)N2CCc3[nH]nc(-c4ccc(Cl)cc4Cl)c3C2)ccc1=O,inactive: -0.2%
11,CC(C)=CCN1CCN(Cc2cn(C)nc2C)CC1CCO (stereo not given),5.5%
12,Cc1occc1C(=O)N1CCC2(CCCN(Cc3ccc(F)c(F)c3)C2=O)C1 (stereo not given),2.4%
13,O=C(c1cc(COc2ccc(F)cc2Cl)on1)N1CCN(c2cnccn2)CC1,4.5%
14,COc1cccc(C(=O)NC2CC(=O)N(Cc3ccc(F)cc3)C2)c1 (stereo not given),inactive: -1%
15,c1cncc(CNc2nc3nonc3nc2NCc2cccs2)c1,0.5%
16,NC(=O)C1(N2CCCCC2)CCN(C(=O)C2CCC(=O)N(C3CCCC3)C2)CC1 (stereo not given),5.6%
17,O=C(CCc1ccncc1)NC1CC(=O)N(Cc2ccccc2C(F)(F)F)C1 (stereo not given),0.3%
18,Cc1cc(CNC(=O)C2CCCN(C(N)=O)C2)c2[nH]c(C)c(C)c2c1 (stereo not given),inactive: -2.1%
19,COC(=O)c1ccc(Cn2ncc(N3CCc4ccccc4C3)cc2=O)o1,inactive: -4.1%
20,Cc1nc2cc(OCc3cc(C(=O)N(C)CCC4CCOCC4)no3)ccc2s1,0.2%
21,CCN(CC)CC(O)COc1ccc(CNCc2cnn(C)c2)cc1OC (stereo not given),7.4%
22,O=C(Nc1ccccc1)N1CCN(c2nsc3ccccc23)CC1,inactive: -22.1%
23,Cc1nccn1CCC(=O)N1CCCC(C(=O)c2ccc3c4c(cccc24)CC3)C1 (stereo not given),inactive: -4%
24,Cc1ncc(CN2CCOC(Cc3cccc(C(F)(F)F)c3)C2)n1C (stereo not given),inactive: -2.3%
25,CC(C)(CN1CCOCC1)CN1CCOC(CCc2ccccc2)C1 (stereo not given),4.6%
26,O=C(NC1CCCN(C2CCCCCC2)C1)c1ccc(=O)[nH]n1 (stereo not given),inactive: -1.5%
27,CCS(=O)(=O)c1ncc(CN(C)CCc2ccccn2)n1CCOC,9.1%

row,SMILES,activity
1,COc1ccc(C(C)N(C)Cc2nc(-c3ccc(OC)cc3OC)oc2C)cc1 (stereo not given),5.7%
2,CCNC(=O)N1CCOC(Cc2ccccc2Cl)C1 (stereo not given),3.9%
3,COC(=O)CCC(=O)N(C)CC1CCN(CCc2cccc(F)c2)CC1,4%
4,COc1ccc(-c2noc(CN3CCC(C)CC3)n2)cc1OC,inactive: -16%
5,COc1ccc(-c2ncc(CNC3CCCN(c4ncccn4)C3)cn2)cc1 (stereo not given),3.6%
6,COc1cccc(NC(=O)CCC2CCN(C(=O)CCn3cncn3)CC2)c1,inactive: -1%
7,CC#CCN(Cc1ccco1)C(=O)c1cn(CCN2CCCCC2)nn1,1.3%
8,COc1ccc(-c2nc(CN(CCO)Cc3cccs3)c(C)o2)c(OC)c1,inactive: -4.8%
9,CN(C)S(=O)(=O)c1ccc(CCC(=O)N2CCOCC2)cc1,1.9%
10,O=C(CC(c1ccccc1)c1ccc2c(c1)OCO2)N1CCSCC1 (stereo not given),0.2%
11,Cc1cc(C)n2nc(C(=O)N3CCC4(CCCN(CC(C)(C)C)C4)C3)cc2n1 (stereo not given),2.5%
12,CN(Cc1cccc(OCC(O)CN2CCCCCC2)c1)Cc1cnccn1 (stereo not given),0.6%
13,CC(=O)Nc1ccc(S(=O)(=O)N2CCN(C(=O)N3CCCCCC3)CC2)cc1,inactive: -1.3%
14,CC(C)(C)OC(=O)N1CCNC(=O)C1CC(=O)OCC1CCCO1 (stereo not given),1.5%
15,CCN(Cc1ccncc1)CC1CCCN(CCc2cccc(F)c2)C1 (stereo not given),inactive: -0.5%
16,CCC(=O)Nc1nonc1-c1nc2ccccc2n1C(C)C,8.8%
17,Cc1nc(CN(C)Cc2cn(C)nc2-c2cccc(Cl)c2)cs1,inactive: -3.9%
18,Cc1ccc2occ(CN3CCN(Cc4ccsc4)C(CCO)C3)c(=O)c2c1 (stereo not given),2.3%
19,O=C(CCC1CCN(Cc2cc(F)ccc2-n2cccn2)CC1)N1CCOCC1,7%
20,CN(CCC(O)c1ccccc1)C(=O)CCCn1nnnc1CN1CCOCC1 (stereo not given),2.6%
21,COc1ccccc1N1CCN(C2CCCN(C(=O)CCc3ccccc3)C2)CC1 (stereo not given),4%
22,COc1cc(C)c(Br)cc1S(=O)(=O)NCCN1CCOCC1,inactive: -7.7%
23,COc1cccc(CC2CN(C3CCSCC3)CCO2)c1 (stereo not given),10.9%
24,COC(=O)c1ccc(CN2CCC(CCC(=O)NCC3CCCO3)CC2)cc1 (stereo not given),inactive: -1.1%
25,Cc1ccc(C(=O)N2CCCCCC2)cc1S(=O)(=O)N1CCCCC1,inactive: -1%
26,Cc1nc2nc(C)c(CCC(C)C)c(=O)n2[nH]1,2.1%
27,Fc1ccc(C2(c3noc(-c4cn[nH]c4)n3)CCOC2)cc1 (stereo not given),2.1%

row,SMILES,activity
1,COc1ccccc1CN1CCCC(CN(CCN(C)C)C(=O)c2ccoc2)C1 (stereo not given),1.2%
2,Cc1occc1-c1nnc2sc(CCc3ccccc3)nn12,inactive: -18.1%
3,CC1(C)CC(NS(=O)(=O)c2cccc(F)c2)CC(C)(C)N1,inactive: -0.9%
4,Cc1csc(CNCC2(O)CCCN(CC3CC3)C2=O)n1 (stereo not given),inactive: -1.7%
5,Nc1ncnc(N2CCc3ccccc32)n1,5.6%
6,O=C1CCCCCN1CCC(=O)N1CCOC(CCc2ccccc2)C1 (stereo not given),3.4%
7,COCCOC1CCN(Cc2nc(-c3ccc(C(=O)OC)cc3)oc2C)CC1,15.7%
8,CN(C)Cc1ccc(C(=O)N2CCOC(CCc3ccccc3)C2)o1 (stereo not given),5.7%
9,CCc1nn(C)c(NC(=O)Cn2cc(-c3ncc(F)c(NC)n3)cn2)c1C,inactive: -0.7%
10,O=C(CCc1cn[nH]c1)N1CCOC(Cc2ccccc2Cl)C1 (stereo not given),inactive: -3.6%
11,CCN(CC)C(=O)n1nnc2ccccc21,inactive: -9.3%
12,CCCNC(=O)c1ccccc1NS(=O)(=O)Cc1ccccc1,inactive: -1%
13,NC(=O)COc1ccc(Br)cc1CO,inactive: -2.7%
14,COCC1CCCCN1Cc1nc(-c2ccccc2C)oc1C (stereo not given),inactive: -2.4%
15,CCCCn1nnnc1NCc1cccnc1,inactive: -5.4%
16,O=C(CCN1CCCO1)N1CCC2(CCCN(CCCc3ccccc3)C2)C1 (stereo not given),inactive: -2.5%
17,O=C(c1ccc(OC2CCN(Cc3ccccn3)CC2)cc1)N1C[C@@H]2CCC[C@H]1C2,inactive: -4.5%
18,Cc1ccc(C(=O)N(CCN(C)C)CC2CCCN(Cc3ccccc3F)C2)cn1 (stereo not given),inactive: -0.8%
19,CN(C)c1nc2n(c(=O)n1)CCN2C(=O)Nc1ccccc1,1.8%
20,COc1ccc(C(=O)NCc2cccnc2N2CCN(C(C)=O)CC2)cc1F,inactive: -2.7%
21,O=C(Cn1cncn1)N1CC[C@@H](N2CCN(CCc3ccccc3)CC2)[C@H](O)C1,inactive: -2.2%
22,CCOc1ccc(CN2CCN(Cc3nc(CC)[nH]c3C)CC2CCO)cc1 (stereo not given),inactive: -1.2%
23,C=CCN(CC=C)C(=O)c1coc(CN2CCN(Cc3ccccc3)CC2)n1,6.8%
24,O=C(CCC1CCCN(C(=O)c2ccnc(Cl)c2)C1)N1CCN(c2ccccn2)CC1 (stereo not given),6.6%
